The subject of data set [1] is Mlh1-Mlh3 (Saccharomyces cerevisiae). Briefly: competition with a labelled probe. The following applies: ineffective competitor of plasmid nicking, 0-2000 nM, 1 mM Mg2+, text cites nM Kd from earlier work; recombinant protein.
For a further data set, the system named is MLH1-PMS2 (Homo sapiens). As to the kind of experiment: competition with a labelled probe. The note with it: inhibits plasmid nicking, 1 uM RFC and PCNA, 0.5 mM ATP, 1 mM Mn2+; recombinant protein.

Chains of the proteins cited; added tags and fusions are not shown. A line that says so, or that is headed by a name, gives the form on record, which may keep a tag or linker.
Mlh1-Mlh3 (Saccharomyces cerevisiae), one chain, as listed by the source, chain 1 of 2: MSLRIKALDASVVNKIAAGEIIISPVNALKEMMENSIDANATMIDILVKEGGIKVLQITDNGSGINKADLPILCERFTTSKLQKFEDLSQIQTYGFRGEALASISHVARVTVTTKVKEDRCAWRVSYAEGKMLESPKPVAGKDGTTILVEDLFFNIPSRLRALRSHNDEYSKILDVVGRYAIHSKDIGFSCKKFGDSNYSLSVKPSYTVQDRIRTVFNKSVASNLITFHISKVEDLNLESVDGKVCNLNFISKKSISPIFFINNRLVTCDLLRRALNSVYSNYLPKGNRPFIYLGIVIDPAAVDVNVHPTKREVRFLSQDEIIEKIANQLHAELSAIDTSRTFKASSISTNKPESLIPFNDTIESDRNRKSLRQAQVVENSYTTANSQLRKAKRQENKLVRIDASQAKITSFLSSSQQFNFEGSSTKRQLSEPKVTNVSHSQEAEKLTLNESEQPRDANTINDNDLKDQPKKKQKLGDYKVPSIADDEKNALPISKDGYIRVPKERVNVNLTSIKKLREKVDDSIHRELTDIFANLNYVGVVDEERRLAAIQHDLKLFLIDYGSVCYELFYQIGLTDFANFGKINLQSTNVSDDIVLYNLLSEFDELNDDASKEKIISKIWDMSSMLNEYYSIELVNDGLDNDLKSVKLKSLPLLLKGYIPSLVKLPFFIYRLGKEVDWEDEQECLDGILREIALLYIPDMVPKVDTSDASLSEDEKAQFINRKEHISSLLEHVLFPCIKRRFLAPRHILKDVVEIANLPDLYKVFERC
Mlh1-Mlh3 (Saccharomyces cerevisiae), one chain, as listed by the source, chain 2 of 2: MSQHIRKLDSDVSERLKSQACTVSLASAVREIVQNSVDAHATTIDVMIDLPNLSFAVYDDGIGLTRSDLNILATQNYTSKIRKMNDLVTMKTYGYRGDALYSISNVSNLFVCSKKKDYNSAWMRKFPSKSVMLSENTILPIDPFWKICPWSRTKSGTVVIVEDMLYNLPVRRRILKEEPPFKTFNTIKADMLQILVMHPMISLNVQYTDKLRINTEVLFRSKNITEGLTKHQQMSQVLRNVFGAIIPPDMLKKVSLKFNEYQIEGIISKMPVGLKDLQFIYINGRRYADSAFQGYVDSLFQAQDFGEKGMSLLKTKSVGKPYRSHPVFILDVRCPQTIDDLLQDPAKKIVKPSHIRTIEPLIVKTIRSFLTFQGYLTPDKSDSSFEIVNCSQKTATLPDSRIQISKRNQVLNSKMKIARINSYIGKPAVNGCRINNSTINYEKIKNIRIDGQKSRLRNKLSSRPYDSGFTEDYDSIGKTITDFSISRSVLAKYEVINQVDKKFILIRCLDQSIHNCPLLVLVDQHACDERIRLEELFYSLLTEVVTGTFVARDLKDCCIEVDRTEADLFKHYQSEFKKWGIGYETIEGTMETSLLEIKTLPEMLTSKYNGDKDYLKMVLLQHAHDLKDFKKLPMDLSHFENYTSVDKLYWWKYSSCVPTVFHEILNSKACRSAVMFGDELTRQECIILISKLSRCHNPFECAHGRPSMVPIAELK
MLH1-PMS2 (Homo sapiens), one chain, as listed by the source, chain 2 of 2: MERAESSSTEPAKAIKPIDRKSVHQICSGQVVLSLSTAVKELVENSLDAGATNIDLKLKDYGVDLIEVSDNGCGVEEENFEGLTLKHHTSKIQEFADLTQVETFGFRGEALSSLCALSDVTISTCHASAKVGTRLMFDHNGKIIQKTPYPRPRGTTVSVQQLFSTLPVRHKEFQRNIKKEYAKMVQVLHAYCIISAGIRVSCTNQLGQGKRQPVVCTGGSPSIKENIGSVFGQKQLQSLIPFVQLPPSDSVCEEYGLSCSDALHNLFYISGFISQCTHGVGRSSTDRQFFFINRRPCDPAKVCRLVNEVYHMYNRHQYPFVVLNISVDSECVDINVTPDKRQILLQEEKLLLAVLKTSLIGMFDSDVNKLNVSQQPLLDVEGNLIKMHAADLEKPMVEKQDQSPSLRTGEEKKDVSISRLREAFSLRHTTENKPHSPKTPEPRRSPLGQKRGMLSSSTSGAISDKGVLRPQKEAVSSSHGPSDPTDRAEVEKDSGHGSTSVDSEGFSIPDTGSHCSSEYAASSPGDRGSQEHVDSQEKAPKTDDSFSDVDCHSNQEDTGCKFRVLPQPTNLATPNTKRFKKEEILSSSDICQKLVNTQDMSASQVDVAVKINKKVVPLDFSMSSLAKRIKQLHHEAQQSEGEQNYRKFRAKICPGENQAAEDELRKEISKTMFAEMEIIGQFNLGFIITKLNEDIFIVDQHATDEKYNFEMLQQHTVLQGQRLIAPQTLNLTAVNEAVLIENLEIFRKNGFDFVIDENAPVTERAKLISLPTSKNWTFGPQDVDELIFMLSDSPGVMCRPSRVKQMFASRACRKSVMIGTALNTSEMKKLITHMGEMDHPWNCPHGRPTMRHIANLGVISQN
MLH1-PMS2 (Homo sapiens), one chain, as listed by the source, chain 1 of 2: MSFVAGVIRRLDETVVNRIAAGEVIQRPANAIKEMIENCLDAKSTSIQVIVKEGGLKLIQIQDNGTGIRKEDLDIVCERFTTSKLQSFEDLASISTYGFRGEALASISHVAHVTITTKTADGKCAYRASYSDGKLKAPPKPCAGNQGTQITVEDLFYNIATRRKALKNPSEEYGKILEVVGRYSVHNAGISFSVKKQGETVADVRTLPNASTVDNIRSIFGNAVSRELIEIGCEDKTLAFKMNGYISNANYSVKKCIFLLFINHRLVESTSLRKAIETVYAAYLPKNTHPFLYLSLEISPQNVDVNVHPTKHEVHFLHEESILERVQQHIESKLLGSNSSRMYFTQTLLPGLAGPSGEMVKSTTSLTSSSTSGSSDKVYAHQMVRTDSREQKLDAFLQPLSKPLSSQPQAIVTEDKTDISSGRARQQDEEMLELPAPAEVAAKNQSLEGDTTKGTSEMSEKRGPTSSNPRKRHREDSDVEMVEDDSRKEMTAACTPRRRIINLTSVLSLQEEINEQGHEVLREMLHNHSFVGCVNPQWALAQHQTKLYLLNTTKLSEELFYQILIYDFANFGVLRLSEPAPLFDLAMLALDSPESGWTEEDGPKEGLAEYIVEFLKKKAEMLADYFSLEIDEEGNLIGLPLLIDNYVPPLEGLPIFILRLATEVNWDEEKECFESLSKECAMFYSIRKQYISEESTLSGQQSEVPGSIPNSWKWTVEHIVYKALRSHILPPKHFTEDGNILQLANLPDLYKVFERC

The record followed here is PMC5409509.

Construct, isoform or probe ends are uncertain for at least one entry. For some assays here: Weaker means in comparison with the reference protein, sequence or condition of that experiment. For some assays here: At least one verdict was read from the data and is not stated in words by the source.

Turning to “GGGTCAACGTGGGCAAAGATGTCCTAGCAAGTCAGAATTCGGTAGCGTG / ACAGCTACCGAATTCTGACTTGCTAGGACATCTTTGCCCACGTTGACCC [homoduplex oligonucleotide (AO3142/AO3144)]”, the binding result in data set [1] is “binds more weakly”.
For the sequence “GGGTCAACGTGGGCAAAGATGTCCTAGCAAGTCAGAATTCGGTAGCGTG / CACGCTACCGAATTCTGACTTGCTAGGTGTGTGTGACATCTTTGCCCACGTTGACCC [+8 loop oligonucleotide (AO3142/AO3143)]”, the binding result in the data set on MLH1-PMS2 (Homo sapiens) is recorded as “binds”.
